Reference: patent US20220195054A1 (BERGEN TEKNOLOGIOVERF RING, published 2022)
Results are given in words; binding and its absence hold for the method and conditions named. Some entries that bind do so weakly or less than the wild type. Sequences can lack the tags named with a protein.

Key:
[1] = molecular target: T1, recombinant human Tyro3/Dtk-Fc chimera (rhTyro3/Dtk-Fc; R&D Systems, Cat no. 859-DK) (human) (UniProt Q06418); experiment: Biacore 3000 SPR, rhTyro3/Dtk-Fc on a CM5 chip, rmGas6 injected at 10 µg/mL for 3 min, 5 min dissociation [lower panel rmGas6]
T1 sequence: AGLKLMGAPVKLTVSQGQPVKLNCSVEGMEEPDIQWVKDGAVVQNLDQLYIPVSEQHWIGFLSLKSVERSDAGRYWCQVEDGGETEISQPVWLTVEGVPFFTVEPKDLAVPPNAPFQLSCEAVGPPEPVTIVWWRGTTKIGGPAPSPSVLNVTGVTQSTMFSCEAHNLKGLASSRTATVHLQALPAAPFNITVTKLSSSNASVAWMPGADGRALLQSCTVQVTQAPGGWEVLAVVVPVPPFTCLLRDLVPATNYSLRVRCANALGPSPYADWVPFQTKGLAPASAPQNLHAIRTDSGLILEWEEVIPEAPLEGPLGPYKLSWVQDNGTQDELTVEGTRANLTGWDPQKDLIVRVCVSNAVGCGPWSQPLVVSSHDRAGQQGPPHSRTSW

[2] = molecular target: T1, recombinant human Tyro3/Dtk-Fc chimera (rhTyro3/Dtk-Fc; R&D Systems, Cat no. 859-DK) (human); experiment: SPR (Biacore 3000), rhTyro3/Dtk-Fc immobilised, rmGas6 10 µg/mL

binding [1]: binds
binding [2]: binds
B1: recombinant mouse Gas6 (rmGas6; R&D Systems, Cat no. 986-GS/CF) (ligand, UniProt Q61592 116-674, looked up)
chain: QCTPNPCDKKGTHICQDLMGNFFCVCTDGWGGRLCDKDVNECVQKNGGCSQVCHNKPGSFQCACHSGFSLASDGQTCQDIDECTDSDTCGDARCKNLPGSYSCLCDEGYTYSSKEKTCQDVDECQQDRCEQTCVNSPGSYTCHCDGRGGLKLSPDMDTCEDILPCVPFSMAKSVKSLYLGRMFSGTPVIRLRFKRLQPTRLLAEFDFRTFDPEGVLFFAGGRSDSTWIVLGLRAGRLELQLRYNGVGRITSSGPTINHGMWQTISVEELERNLVIKVNKDAVMKIAVAGELFQLERGLYHLNLTVGGIPFKESELVQPINPRLDGCMRSWNWLNGEDSAIQETVKANTKMQCFSVTERGSFFPGNGFATYRLNYTRTSLDVGTETTWEVKVVARIRPATDTGVLLALVGDDDVVPISVALVDYHSTKKLKKQLVVLAVEDVALALMEIKVCDSQEHTVTVSLREGEATLEVDGTKGQSEVSTAQLQERLDTLKTHLQGSVHTYVGGLPEVSVISAPVTAFYRGCMTLEVNGKILDLDTASYKHSDITSHSCPPVEHATP
